Source: paper PMC12040169 (PLOS Biology, 2025)
The list shows a part of the results.

Each compound was assayed on T1, CTL2-GFP (C. trachomatis L2/434/Bu, GFP-expressing). Details: bulk GFP, single well; 28.5 h, 10 µM; inhibitor.
T1 construct: L2/434/Bu, GFP-expressing
Design: species or system HeLa; Intracellular C. trachomatis growth in HeLa cells, bulk GFP fluorescence relative to DMSO

| SMILES | % of control remaining [%] |
| --- | --- |
| N#C/C(=C\c1ccc2noc(-c3ccccc3)c2c1)c1nc(-c2cc3ccccc3oc2=O)cs1 [CBK267269] | 138.877 |
| COc1cc2c(cc1OC)C1(CCN(CCCC(F)(F)F)CC1)NC(=O)C2 [CBK039859] | 84.3387 |
| CC(=O)Nc1cccc(NC(=O)N2CCN(Cc3ccccc3)CC2)c1 [CBK155643] | 86.1476 |
| CCCCn1c(SCc2nc(-c3ccncc3)no2)nc2ccsc2c1=O [CBK288576] | 108.513 |
| Cc1cc(C(=O)C(C)Sc2nnc(N)s2)c(C)n1-c1ccccc1 (centres unmarked) [CBK297916] | 158.898 |
| CS(=O)(=O)CCOCCNC(=O)c1cc(Br)cnc1Cl [CBK305178] | 131.525 |
| COc1ccc(-c2cn(-c3ccc(OC)c(OC)c3)nn2)cc1 [CBK113001] | 107.24 |
| CCn1c(COc2cccc(C)c2)nnc1SCC(=O)c1ccccc1 [CBK267143] | 123.182 |
| CC1(C)CC(=O)C=C(C(=O)Nc2cncc(OC3CCNCC3)n2)O1 [CBK038922T] | 112.951 |
| CC(NC(=O)N1CCSCC1)c1cccc(Br)c1 (centres unmarked) [CBK306475] | 136.512 |
| Cc1ccc(NC(=O)CN2C(=O)c3ccccc3C2=O)c(O)c1 [CBK270028] | 148.182 |
| CC(C)(CO)CNc1nc(-c2cc(C(F)(F)F)cc(C(F)(F)F)c2)cnc1N [CBK063490] | 133.874 |
| CCN1CC2(CCC1=O)CCN(Cc1nnc(-c3cccnc3)o1)CC2 [CBK307137] | 139.499 |
| Cc1c(F)cccc1CNC1CCC(NC(=O)OC(C)(C)C)CC1 (centres unmarked) [CBK056691] | 153.02 |
| Cc1ccc(OC(=O)c2cc(Cl)cnc2Cl)cc1 [CBK090321] | 136.593 |
| O=C(c1n[nH]cc1Cl)N1CCCC(c2cc3ccccc3cn2)C1 (centres unmarked) [CBK285062] | 136.513 |
| Nc1nnc2c(C(F)(F)F)nc3ccccc3n12 [CBK021345] | 163.537 |
| CC1Cc2cc(C(=O)C3=C(O)C(=O)N(Cc4ccco4)C3c3cccnc3)ccc2O1 (centres unmarked) [CBK266236] | 144.403 |
| O=C(CS(=O)(=O)Cc1ccccc1)Nc1ccc(S(=O)(=O)N2CCCCCC2)cc1 [CBK266653] | 142.342 |
| Cc1ccc(OCc2ccccc2)c(C(CCN(C(C)C)C(C)C)c2ccccc2)c1 (centres unmarked) [CBK017906] | 36.3093 |
| COc1c(C)cc(-c2ncnc(C)c2C)cc1C [CBK306884] | 166.685 |
| O=C(CSc1nc(Nc2ccccc2)nc(N2CCOCC2)n1)N1CCN(c2ccccc2)CC1 [CBK269078] | 146.488 |
| Cc1ccc(S(=O)(=O)NC(=O)NCCCCNC(=O)NS(=O)(=O)c2ccc(C)cc2)cc1 [CBK296078] | 140.036 |
| CCCc1[nH]nc(O)c1Cc1ccc(C(F)(F)F)cc1 [CBK075014] | 91.5218 |
| CCCc1[nH]nc(O)c1C(=O)c1c(F)cccc1Cl [CBK103524] | 76.8773 |

13 of the compounds above, with bars between the fields.
SMILES | % of control remaining [%]
N#C/C(=C\c1ccc2noc(-c3ccccc3)c2c1)c1nc(-c2cc3ccccc3oc2=O)cs1 [CBK267269] | 138.877
CS(=O)(=O)CCOCCNC(=O)c1cc(Br)cnc1Cl [CBK305178] | 131.525
COc1ccc(-c2cn(-c3ccc(OC)c(OC)c3)nn2)cc1 [CBK113001] | 107.24
CCn1c(COc2cccc(C)c2)nnc1SCC(=O)c1ccccc1 [CBK267143] | 123.182
CC(NC(=O)N1CCSCC1)c1cccc(Br)c1 (centres unmarked) [CBK306475] | 136.512
Cc1ccc(NC(=O)CN2C(=O)c3ccccc3C2=O)c(O)c1 [CBK270028] | 148.182
CC(C)(CO)CNc1nc(-c2cc(C(F)(F)F)cc(C(F)(F)F)c2)cnc1N [CBK063490] | 133.874
CCN1CC2(CCC1=O)CCN(Cc1nnc(-c3cccnc3)o1)CC2 [CBK307137] | 139.499
Cc1c(F)cccc1CNC1CCC(NC(=O)OC(C)(C)C)CC1 (centres unmarked) [CBK056691] | 153.02
O=C(c1n[nH]cc1Cl)N1CCCC(c2cc3ccccc3cn2)C1 (centres unmarked) [CBK285062] | 136.513
Cc1ccc(OCc2ccccc2)c(C(CCN(C(C)C)C(C)C)c2ccccc2)c1 (centres unmarked) [CBK017906] | 36.3093
CCCc1[nH]nc(O)c1Cc1ccc(C(F)(F)F)cc1 [CBK075014] | 91.5218
CCCc1[nH]nc(O)c1C(=O)c1c(F)cccc1Cl [CBK103524] | 76.8773

(list continues)

| SMILES | % of control remaining [%] |
| --- | --- |
| C=CCN1C(=O)C2(CC(=O)N(C)C2=O)c2ccccc21 (centres unmarked) [CBK075137] | 89.0062 |
| CC(C)(C)OC(=O)N1CCC2(CC1)NC(=O)c1cc(-c3cccc4ncccc34)ccc1O2 [CBK083674] | 102.96 |
| CCNC(=O)NC(=O)C1CCN(CCc2ccc(O)c(OC)c2)CC1 [CBK035184] | 110.179 |
| O=C(Nc1nnc(-c2ccccc2)o1)c1ccc2ncsc2c1 [CBK287598] | 153.85 |
| COc1ccc(-c2cccc(CC3(C(=O)NCc4cccs4)CCOCC3)c2)cc1 [CBK286514] | 97.5121 |
| O=C(CCCc1nc(-c2ccccc2Cl)no1)NCc1cccnc1 [CBK269516] | 119.248 |
| CC(C)(C)NC(=O)Cn1nc(-c2cc3c(s2)CCC3)oc1=O [CBK284714] | 88.7323 |
| O=C(Nc1cccc(-c2nc3ncccc3o2)c1)c1ccc(Cl)c([N+](=O)[O-])c1 [CBK262845] | 100 |
| CC1(C)Cc2nc(N3CCOCC3)ncc2C(NC(=O)c2cn[nH]c2)C1 (centres unmarked) [CBK307409] | 106.901 |
| CC(C)(C)c1ccc(-c2cc3ncccc3nc2O)cc1 [CBK081302] | 128.318 |
| N#CCCN(CCN1CCCC1)S(=O)(=O)c1cccc2nsnc12 [CBK261141] | 116.989 |
| COC(=O)CNC(c1ccccc1)c1cc(Br)ccc1NC(C)=O (centres unmarked) [CBK262976] | 73.1285 |
| COc1ccc(-c2ccc(OCCNC(=O)c3cccc(F)c3)nn2)cc1 [CBK294428] | 121.017 |
| COc1ccc(NC(=O)C2CCCN2S(=O)(=O)c2ccc(OC)cc2)cc1 (centres unmarked) [CBK070001] | 100 |
| O=C(CCc1cccnc1)N1CCCc2ccccc21 [CBK200344] | 127.112 |
| COc1ccc2c(c1)C1(CC(=O)N(CCc3scnc3C)C1=O)C(=O)N2Cc1ccccc1 (centres unmarked) [CBK075240] | 109.02 |
| N#Cc1ccccc1CSCCNC(=O)c1ccc(NC(=O)c2ccco2)s1 [CBK296749] | 129.67 |
| CC(C)c1ccc(CNC(=O)C2(c3ccccc3)CCCC2)cc1 [CBK161531] | 94.2608 |
| CCc1onc(C)c1NC(=O)NC1CC2(CCCC2)Oc2ccccc21 (centres unmarked) [CBK305890] | 102.669 |
| COc1ccc(C)cc1S(=O)(=O)N(CC(=O)N1CCN(C)CC1)c1cccc(C(F)(F)F)c1 [CBK269355] | 83.3099 |
| CC(C)(C)c1cn(C[C@H]2CC3CCN2C[C@@H]3C(=O)Nc2nccs2)nn1 (some centres unmarked) [CBK288737] | 125.62 |
| CC(OCc1ccccc1)C(=O)NCC1(N2CCOCC2)CCSC1 (centres unmarked) [CBK305678] | 95.0877 |
| O=C(Nc1ccc(F)cc1)c1ccsc1NS(=O)(=O)Cc1ccccc1 [CBK042303] | 100 |
| CCN(CC(=O)NCc1ccc(Cl)cc1)S(=O)(=O)c1ccc(OC)cc1 [CBK305836] | 157.295 |
| CN1CCN([C@H]2[C@@H]3OC[C@@H](O3)[C@@H](NCc3ccc(N(C)C)cc3)[C@@H]2O)CC1 [CBK288824] | 122.835 |
